PubChem BioAssay AID652243 | Drosophila RNAi Screening Center | 2013
The screen tested about 24,000 reagents; shown is an unselected part of those with a known target gene and a result. Over the whole deposit, 246 (1%) were called active. 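Plates not normalised; calls are printed but the firefly/Renilla ratio behind them is not deposited; fold cut for lowering reported inconsistently.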 Raw values vary from plate to plate and are shown uncorrected. No sequences are given here. The record does not give: the amount of reagent.

Test: 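Fly regulators of androgen-dependent reporter output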 (primary screen)
System: Drosophila S2R+ cells
Knock-down reagent: long dsRNA against Drosophila genes
Time to read-out: 72 h (48 h, then 24 h hormone)
Challenge: synthetic androgen R1881 at 10 nM for 24 h
Detection: 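Per-well raw luminescence of the androgen-driven firefly reporter and of the Renilla control, two replicates each, without normalisation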
Reading the numbers: firefly reporter light: higher = more light from androgen-responsive reporter; Renilla control light: higher = more constitutive control signal (cell number, transfection)
Call rule: 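Across duplicate plates, a knock-down whose log firefly/Renilla ratio shifted a set fold down or up from the GFP/LacZ control mean was a hit; the downward cut appears as both 1.5 and 3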
Calls: active = hit: reporter lowered or raised; inactive = no hit

Depletion of LSm7 [DRSC02251] resulted in: firefly reporter light, replicate 1 = 1.65e5; firefly reporter light, replicate 2 = 1.59e5; Renilla control light, replicate 1 = 1.59e6; Renilla control light, replicate 2 = 1.22e6; inactive.
Against CG8149 [DRSC16391], the entry reads firefly reporter light, replicate 1 = 1.81e5; firefly reporter light, replicate 2 = 2.09e5; Renilla control light, replicate 1 = 3.73e6; Renilla control light, replicate 2 = 3.59e6; inactive.
RpS28a [DRSC15064] showed firefly reporter light, replicate 1 = 2.33e5; firefly reporter light, replicate 2 = 1.17e5; Renilla control light, replicate 1 = 1.89e6; Renilla control light, replicate 2 = 2.23e6; inactive.
Knock-down of betaTub56D [DRSC07583] resulted in: firefly reporter light, replicate 1 = 57969; firefly reporter light, replicate 2 = 1.08e5; Renilla control light, replicate 1 = 7.33e5; Renilla control light, replicate 2 = 1.23e6; inactive.
After knock-down of betaTub56D [DRSC23516], the screen gave firefly reporter light, replicate 1 = 3.83e5; firefly reporter light, replicate 2 = 5.20e5; Renilla control light, replicate 1 = 5.80e5; Renilla control light, replicate 2 = 6.64e5; inactive.
Knock-down of CG17486 [DRSC07752] came out at: firefly reporter light, replicate 1 = 7.41e5; firefly reporter light, replicate 2 = 7.69e5; Renilla control light, replicate 1 = 1.14e6; Renilla control light, replicate 2 = 1.04e6; inactive.
Depletion of CG6044 [DRSC04522] gave: firefly reporter light, replicate 1 = 2.41e5; firefly reporter light, replicate 2 = 2.12e5; Renilla control light, replicate 1 = 1.74e6; Renilla control light, replicate 2 = 1.79e6; inactive.
For Gclm [DRSC15677], the entry reads firefly reporter light, replicate 1 = 37377; firefly reporter light, replicate 2 = 67972; Renilla control light, replicate 1 = 5.08e5; Renilla control light, replicate 2 = 5.48e5; inactive.
Depletion of Gclm [DRSC26358] gave: firefly reporter light, replicate 1 = 3.18e5; firefly reporter light, replicate 2 = 2.77e5; Renilla control light, replicate 1 = 6.70e5; Renilla control light, replicate 2 = 7.91e5; inactive.
For epsilonCOP [DRSC02003], the entry reads firefly reporter light, replicate 1 = 5.85e5; firefly reporter light, replicate 2 = 7.87e5; Renilla control light, replicate 1 = 1.94e6; Renilla control light, replicate 2 = 1.89e6; inactive.
Against epsilonCOP [DRSC26466], the entry reads firefly reporter light, replicate 1 = 3.35e5; firefly reporter light, replicate 2 = 2.73e5; Renilla control light, replicate 1 = 5.11e5; Renilla control light, replicate 2 = 5.74e5; inactive.
Against Opbp [DRSC04966], the entry reads firefly reporter light, replicate 1 = 2.80e5; firefly reporter light, replicate 2 = 4.14e5; Renilla control light, replicate 1 = 1.59e6; Renilla control light, replicate 2 = 1.83e6; inactive.
Against Opbp [DRSC28850], the values are firefly reporter light, replicate 1 = 5.54e5; firefly reporter light, replicate 2 = 4.93e5; Renilla control light, replicate 1 = 1.24e6; Renilla control light, replicate 2 = 1.05e6; inactive.
CG15394 [DRSC00408] showed firefly reporter light, replicate 1 = 55721; firefly reporter light, replicate 2 = 46806; Renilla control light, replicate 1 = 5.39e5; Renilla control light, replicate 2 = 4.52e5; inactive.
